# Experimental data reported in the supplement of paper PMC12067093, “Discovery and optimisation of a covalent ligand for TRIM25 and its application to targeted protein ubiquitination” (Chemical Science, 2025).
# Chains of the proteins cited; added tags and fusions are not shown. Lines headed by an entry give the natural chain unless they say otherwise; changes in a name come on top.
# UniProt Q15084: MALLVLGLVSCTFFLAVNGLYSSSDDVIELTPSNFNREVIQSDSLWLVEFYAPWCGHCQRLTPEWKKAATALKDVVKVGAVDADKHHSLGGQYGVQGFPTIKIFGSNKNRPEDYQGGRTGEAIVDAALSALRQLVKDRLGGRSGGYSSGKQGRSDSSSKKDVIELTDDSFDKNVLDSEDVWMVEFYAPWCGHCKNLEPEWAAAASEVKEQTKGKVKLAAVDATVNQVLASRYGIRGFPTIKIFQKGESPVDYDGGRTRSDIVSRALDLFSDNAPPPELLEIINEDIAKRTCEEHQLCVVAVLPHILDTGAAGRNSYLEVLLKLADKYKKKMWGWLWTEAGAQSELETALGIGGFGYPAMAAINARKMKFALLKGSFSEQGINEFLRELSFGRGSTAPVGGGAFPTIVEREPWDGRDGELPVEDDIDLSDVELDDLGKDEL
# UniProt P22061: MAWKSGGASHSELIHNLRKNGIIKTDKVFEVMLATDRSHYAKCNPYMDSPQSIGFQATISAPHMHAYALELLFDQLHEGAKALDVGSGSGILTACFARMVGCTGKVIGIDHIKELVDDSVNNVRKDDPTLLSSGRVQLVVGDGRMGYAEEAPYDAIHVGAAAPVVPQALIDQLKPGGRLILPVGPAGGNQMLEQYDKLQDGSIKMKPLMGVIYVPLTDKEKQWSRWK
# UniProt Q6L8Q7: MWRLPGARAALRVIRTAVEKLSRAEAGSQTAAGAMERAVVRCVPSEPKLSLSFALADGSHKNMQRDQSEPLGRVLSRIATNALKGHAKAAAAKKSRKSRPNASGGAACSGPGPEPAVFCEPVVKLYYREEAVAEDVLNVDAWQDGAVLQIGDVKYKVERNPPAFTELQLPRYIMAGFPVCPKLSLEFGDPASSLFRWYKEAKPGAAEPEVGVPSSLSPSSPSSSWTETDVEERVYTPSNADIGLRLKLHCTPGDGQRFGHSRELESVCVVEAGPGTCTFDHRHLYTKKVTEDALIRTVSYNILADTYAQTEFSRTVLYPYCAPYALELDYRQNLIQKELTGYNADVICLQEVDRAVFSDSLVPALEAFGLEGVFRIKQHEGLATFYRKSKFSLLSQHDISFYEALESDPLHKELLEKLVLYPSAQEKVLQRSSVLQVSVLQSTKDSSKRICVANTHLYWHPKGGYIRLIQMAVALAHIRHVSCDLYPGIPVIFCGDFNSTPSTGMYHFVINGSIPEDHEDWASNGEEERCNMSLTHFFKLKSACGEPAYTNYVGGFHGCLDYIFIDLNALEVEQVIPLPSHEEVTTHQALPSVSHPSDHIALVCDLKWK
# UniProt Q16822, whole entry, looked up: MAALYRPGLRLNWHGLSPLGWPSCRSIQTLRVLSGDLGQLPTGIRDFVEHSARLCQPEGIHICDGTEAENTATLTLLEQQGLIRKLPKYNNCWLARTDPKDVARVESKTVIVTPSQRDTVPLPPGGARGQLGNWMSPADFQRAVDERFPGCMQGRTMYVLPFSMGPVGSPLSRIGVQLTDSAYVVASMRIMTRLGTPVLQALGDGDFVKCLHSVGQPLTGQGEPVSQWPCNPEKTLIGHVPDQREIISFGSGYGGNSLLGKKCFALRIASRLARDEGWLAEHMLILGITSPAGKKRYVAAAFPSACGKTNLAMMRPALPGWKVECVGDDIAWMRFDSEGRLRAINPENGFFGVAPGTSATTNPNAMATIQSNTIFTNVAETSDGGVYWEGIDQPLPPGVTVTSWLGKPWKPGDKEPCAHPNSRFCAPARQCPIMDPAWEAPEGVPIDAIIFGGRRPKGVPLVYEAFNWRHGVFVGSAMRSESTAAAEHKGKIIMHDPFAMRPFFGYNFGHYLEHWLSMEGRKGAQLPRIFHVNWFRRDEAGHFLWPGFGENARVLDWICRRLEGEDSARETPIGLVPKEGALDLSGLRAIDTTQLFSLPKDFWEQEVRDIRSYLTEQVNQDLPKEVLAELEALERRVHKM
# UniProt Q6ZW49, whole entry, looked up: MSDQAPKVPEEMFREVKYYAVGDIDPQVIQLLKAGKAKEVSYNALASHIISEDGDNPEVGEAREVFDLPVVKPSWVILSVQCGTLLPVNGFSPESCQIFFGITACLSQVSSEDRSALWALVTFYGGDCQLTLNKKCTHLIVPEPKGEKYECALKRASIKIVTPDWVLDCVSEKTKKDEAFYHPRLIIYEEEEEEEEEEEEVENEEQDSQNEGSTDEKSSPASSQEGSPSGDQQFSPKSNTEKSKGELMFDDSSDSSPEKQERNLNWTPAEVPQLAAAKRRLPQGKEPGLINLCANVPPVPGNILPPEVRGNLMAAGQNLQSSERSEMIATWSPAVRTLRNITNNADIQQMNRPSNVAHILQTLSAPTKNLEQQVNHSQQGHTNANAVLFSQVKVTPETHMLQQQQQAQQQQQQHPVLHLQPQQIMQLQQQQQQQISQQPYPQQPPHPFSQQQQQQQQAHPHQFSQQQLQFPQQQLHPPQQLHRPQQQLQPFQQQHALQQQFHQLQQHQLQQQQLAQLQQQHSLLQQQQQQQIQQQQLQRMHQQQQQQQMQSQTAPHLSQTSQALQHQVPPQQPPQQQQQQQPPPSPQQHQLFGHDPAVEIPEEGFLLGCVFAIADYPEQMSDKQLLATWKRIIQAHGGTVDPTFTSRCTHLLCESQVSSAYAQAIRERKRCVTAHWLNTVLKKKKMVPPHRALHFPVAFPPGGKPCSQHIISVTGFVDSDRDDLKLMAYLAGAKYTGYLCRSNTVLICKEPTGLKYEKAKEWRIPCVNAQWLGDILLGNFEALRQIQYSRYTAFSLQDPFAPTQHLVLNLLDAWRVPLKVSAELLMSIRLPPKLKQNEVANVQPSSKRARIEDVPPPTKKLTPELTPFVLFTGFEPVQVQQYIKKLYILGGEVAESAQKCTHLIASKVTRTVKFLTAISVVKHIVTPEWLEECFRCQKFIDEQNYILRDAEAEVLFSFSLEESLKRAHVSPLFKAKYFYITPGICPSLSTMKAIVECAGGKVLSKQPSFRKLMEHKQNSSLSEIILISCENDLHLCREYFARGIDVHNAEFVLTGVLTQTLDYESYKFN
# UniProt P50479: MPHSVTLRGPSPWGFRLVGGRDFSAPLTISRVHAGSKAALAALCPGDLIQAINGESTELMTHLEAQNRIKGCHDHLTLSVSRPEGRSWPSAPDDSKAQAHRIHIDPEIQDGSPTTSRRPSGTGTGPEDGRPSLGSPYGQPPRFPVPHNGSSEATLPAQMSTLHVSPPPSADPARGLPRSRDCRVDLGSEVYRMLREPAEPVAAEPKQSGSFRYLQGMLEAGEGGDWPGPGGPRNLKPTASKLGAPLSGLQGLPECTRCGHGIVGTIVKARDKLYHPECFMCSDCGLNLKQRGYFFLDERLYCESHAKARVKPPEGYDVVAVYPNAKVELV
# UniProt Q96HC4: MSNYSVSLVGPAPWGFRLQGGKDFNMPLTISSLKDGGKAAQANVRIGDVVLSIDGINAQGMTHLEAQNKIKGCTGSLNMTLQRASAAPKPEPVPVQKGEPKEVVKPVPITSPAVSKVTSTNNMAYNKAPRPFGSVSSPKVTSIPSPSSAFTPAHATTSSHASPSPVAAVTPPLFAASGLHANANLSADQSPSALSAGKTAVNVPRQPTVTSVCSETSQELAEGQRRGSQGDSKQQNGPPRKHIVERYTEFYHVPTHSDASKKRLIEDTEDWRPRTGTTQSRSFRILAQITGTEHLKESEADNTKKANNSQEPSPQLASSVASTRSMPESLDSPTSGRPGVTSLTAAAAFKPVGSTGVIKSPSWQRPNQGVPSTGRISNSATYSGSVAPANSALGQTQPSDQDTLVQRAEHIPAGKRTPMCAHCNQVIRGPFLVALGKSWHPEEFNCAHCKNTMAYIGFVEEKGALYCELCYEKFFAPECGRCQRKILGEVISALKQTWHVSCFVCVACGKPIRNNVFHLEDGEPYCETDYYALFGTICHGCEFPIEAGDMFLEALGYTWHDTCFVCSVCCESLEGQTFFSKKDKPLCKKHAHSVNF
# UniProt P08559, whole entry, looked up: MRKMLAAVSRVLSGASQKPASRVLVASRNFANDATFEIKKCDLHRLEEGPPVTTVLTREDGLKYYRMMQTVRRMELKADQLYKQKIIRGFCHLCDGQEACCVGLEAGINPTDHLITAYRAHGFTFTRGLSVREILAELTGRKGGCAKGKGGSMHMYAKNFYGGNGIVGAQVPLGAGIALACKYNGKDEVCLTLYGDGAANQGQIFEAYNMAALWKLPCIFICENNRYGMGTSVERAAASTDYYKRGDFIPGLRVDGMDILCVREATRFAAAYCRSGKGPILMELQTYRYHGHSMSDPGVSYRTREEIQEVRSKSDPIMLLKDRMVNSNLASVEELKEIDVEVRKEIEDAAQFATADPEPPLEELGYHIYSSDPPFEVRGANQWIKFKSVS
# UniProt O00151: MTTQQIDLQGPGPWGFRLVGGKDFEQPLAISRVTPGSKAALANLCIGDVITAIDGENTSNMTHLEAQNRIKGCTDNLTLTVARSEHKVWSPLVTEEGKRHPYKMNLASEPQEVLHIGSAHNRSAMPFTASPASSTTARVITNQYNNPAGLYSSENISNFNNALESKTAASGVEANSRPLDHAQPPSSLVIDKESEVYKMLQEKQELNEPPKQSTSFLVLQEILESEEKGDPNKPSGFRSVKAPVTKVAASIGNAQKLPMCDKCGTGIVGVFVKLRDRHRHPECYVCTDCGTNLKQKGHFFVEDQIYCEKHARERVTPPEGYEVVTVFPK
# UniProt O94913, whole entry, looked up: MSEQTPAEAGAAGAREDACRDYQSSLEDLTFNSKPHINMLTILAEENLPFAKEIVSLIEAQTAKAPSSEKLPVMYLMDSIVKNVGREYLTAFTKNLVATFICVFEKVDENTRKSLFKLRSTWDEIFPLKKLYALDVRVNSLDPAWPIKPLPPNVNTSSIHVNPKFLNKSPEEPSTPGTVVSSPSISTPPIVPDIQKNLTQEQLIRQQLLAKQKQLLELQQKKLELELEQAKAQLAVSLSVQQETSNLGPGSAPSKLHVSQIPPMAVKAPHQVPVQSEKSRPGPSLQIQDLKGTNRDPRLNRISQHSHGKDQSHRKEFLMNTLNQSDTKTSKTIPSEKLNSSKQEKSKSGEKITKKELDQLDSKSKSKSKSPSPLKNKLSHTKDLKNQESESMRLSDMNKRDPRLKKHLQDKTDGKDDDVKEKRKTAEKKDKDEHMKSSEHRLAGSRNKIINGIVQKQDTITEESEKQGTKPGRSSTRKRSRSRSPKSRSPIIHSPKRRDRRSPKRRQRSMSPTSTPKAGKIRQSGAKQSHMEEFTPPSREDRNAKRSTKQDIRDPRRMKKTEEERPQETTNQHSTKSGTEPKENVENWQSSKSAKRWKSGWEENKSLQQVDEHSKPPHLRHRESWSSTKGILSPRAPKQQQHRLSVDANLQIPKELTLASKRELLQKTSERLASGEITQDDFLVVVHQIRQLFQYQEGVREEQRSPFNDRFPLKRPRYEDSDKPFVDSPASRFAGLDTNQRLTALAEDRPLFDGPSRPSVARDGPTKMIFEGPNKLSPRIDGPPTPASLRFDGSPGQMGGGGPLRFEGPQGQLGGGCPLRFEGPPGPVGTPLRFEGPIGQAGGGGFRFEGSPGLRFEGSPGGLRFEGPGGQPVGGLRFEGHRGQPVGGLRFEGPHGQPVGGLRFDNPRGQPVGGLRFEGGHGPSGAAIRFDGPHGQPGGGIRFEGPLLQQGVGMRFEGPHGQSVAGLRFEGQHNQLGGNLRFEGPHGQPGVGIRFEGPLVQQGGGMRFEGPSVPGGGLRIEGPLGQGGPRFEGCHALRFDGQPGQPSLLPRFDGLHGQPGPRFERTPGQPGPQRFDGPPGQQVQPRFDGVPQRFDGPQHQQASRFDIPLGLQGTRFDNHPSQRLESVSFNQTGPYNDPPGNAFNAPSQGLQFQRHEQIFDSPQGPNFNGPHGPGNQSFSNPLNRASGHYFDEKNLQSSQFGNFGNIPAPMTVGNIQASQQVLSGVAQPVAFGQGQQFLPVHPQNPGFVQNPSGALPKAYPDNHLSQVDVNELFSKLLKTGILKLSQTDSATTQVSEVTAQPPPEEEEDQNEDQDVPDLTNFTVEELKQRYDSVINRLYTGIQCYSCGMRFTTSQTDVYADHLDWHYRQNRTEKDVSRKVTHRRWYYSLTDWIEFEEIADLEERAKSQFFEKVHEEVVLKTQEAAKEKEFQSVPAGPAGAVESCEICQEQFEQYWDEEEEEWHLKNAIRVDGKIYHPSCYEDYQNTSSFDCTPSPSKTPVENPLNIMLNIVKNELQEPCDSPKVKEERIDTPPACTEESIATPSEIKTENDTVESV
# This is one part of the list.
# Compound: Cc1cc(ccc1-c1ccccc1)C(=O)N1CCCN(CC1)C(=O)CCl [compound 10]
# Assay: probe-labelled cysteine peptide fold change vs DMSO (competition) (log2 fold change); higher = less target engagement (more negative = stronger competition)
# Conditions: THP-1, incubation time: 4 h
# 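Further: competitive profiling in live THP-1 cells: cysteine peptides tagged with an iodoacetamide desthiobiotin (IA-DTB) probe, intensity after compound treatment relative to DMSO-treated cells.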
Target,probe-labelled cysteine peptide fold change (10 µM),probe-labelled cysteine peptide fold change (50 µM)
PDIA6_Q15084_190_NVLDSEDVWMVEFYAPWCGHCK (UniProt Q15084),-0.574,-1.04
PCMT1_P22061_102_MVGCTGK (UniProt P22061),0.0209,-0.199
PDE12_Q6L8Q7_530_CNMSLTHFFK (UniProt Q6L8Q7),0.117,0.0617
PCK2_Q16822_417_EPCAHPNSR (UniProt Q16822),-0.0707,0.384
PAXIP1_Q6ZW49_997_AIVECAGGK (UniProt Q6ZW49),-0.0036,-0.213
PDLIM4_P50479_72_GCHDHLTLSVSRPEGR (UniProt P50479),0.599,-0.181
PCM1_Q15154_1872_PCYLNILEDEQPLNSAAHK (UniProt Q15154),-0.269,-0.229
PDLIM5_Q96HC4_73_GCTGSLNMTLQR (UniProt Q96HC4),0.125,0.0393
PDHA1_P08559_41_KCDLHR (UniProt P08559),-0.0812,0.0515
PDIA6_Q15084_291+297_TCEEHQLCVVAVLPHILDTGAAGR (UniProt Q15084),-0.0901,-0.383
PDLIM1_O00151_286_HRHPECYVCTDCGTNLK (UniProt O00151),0.164,0.136
PDIA6_Q15084_291_TCEEHQLCVVAVLPHILDTGAAGR (UniProt Q15084),-0.0313,-0.147
PDLIM1_O00151_283+286+289_HRHPECYVCTDCGTNLK (UniProt O00151),-0.042,-0.245
PCF11_O94913_102_NLVATFICVFEK (UniProt O94913),-0.0805,0.262

# 2 entries from above, with bars between the fields:
Target | probe-labelled cysteine peptide fold change (10 µM) | probe-labelled cysteine peptide fold change (50 µM)
PDIA6_Q15084_190_NVLDSEDVWMVEFYAPWCGHCK (UniProt Q15084) | -0.574 | -1.04
PDLIM1_O00151_283+286+289_HRHPECYVCTDCGTNLK (UniProt O00151) | -0.042 | -0.245
